Here are results for two molecules from patent US20090291899A1 (published 2009).

Amino acid sequences for entries named in this document (tags omitted). A change or cut given only in a name is not applied to a line headed by its entry.
UniProt P19438: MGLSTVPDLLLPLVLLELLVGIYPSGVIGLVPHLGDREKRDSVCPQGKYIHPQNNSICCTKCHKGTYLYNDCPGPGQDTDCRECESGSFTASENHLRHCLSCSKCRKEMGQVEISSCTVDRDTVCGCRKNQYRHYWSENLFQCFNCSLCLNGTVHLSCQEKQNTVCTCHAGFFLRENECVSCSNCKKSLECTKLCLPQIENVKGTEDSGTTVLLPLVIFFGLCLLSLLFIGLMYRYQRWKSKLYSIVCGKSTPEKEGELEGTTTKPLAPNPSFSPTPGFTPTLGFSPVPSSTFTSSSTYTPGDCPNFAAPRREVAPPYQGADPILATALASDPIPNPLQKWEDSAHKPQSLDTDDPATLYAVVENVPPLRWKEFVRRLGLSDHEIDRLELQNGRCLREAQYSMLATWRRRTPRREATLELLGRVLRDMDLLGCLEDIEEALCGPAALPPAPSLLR

For test [1], the target named is recombinant human soluble TNF receptor inhibitor/Fc chimera (rHusTNFRI) (human) (UniProt P19438). Description: solid-phase binding ELISA, streptavidin-HRP detection. A general note: An ELISA detects its analyte on a solid surface through an enzyme-linked reagent.
In test [2] the target is T1, TNFR1 fragment M4 (H-…-OH) (human).
T1 sequence (peptide): HHHHHHLKPGTT
In words: ELISA on plates coated with M4 peptide, streptavidin-HRP, absorbance at 450 nm.

The target in test [3] is recombinant human soluble TNF receptor inhibitor/Fc chimera (rHusTNFRI) (human) (UniProt P19438). In words: solid-phase competition ELISA on immobilised rHusTNFRI.
Test [4] shares this target. In words: solid-phase competition ELISA against biotinylated TNF70-80.

No constants are given. Whether binding was seen depends on the method and setting. Some entries that bind do so weakly or less than the wild type. For some of these results: Tags and fused reporters may be left off the sequences shown. Where no end group is shown, it is not given here.

B1: biotin-labelled TNF70-80 (peptide)
peptide: PSTHVLITHTI
modifications: biotin label, position not stated
Take B1: the binding result in test [1] and in test [2] was “binds” each time.

B2: TNF70-80 (Pro-Ser-Thr-His-Val-Leu-Ile-Thr-His-Thr-Ile-OH) (peptide)
peptide: PSTHVLITHTI-OH
notes: 4; also called Peptide A; TNF mimetic peptide
On to B2, for which the binding entry in test [3] and in test [4] was “binds” in each case.
